These are yes or no findings as the source states them, for the method shown. Some results given as binding are weak or reduced against the parent protein; the word gives no strength.

Results on one molecule are retold here after publication PMC12337289, “Cryo-EM structure and polar assembly of the PS2 S-layer of Corynebacterium glutamicum” (Proceedings of the National Academy of Sciences of the …, 2025).

The target of this test is PS2 full-length variant (PS2^FL; residues 30 to 510), recombinant (C. glutamicum) (UniProt Q04985). Put plainly: negative-stain electron microscopy of isolated S-layer sheets; insoluble fraction of E. coli expressing PS2^FL, associated with vesicle-like structures.

B1: PS2 full-length variant (PS2^FL; residues 30 to 510), recombinant (protein, UniProt Q04985 30-510)
chain: AQETNPTFNITNGFNDADGSTIQPVGPVNHTEETLRDLTDSTGAYLEEFQNGTVEEIVEAYLQVQASADGFDPSEQAAYEAFEAARVRASQELAASAETITKTRESVAYALKVDQEATAAFEAYRNALRDAAISINPDGSINPDTSINLLIDAANAANRTDRAEIEDYAHLYTQTDIALETPQLAYAFQDLKALQAEVDADFEWLGEFGIDQEDGNYVQRYHLPAVEALKAEVDARVAAIEPLRADSIAKNLEAQKSDVLVRQLFLERATAQRDTLRVVEAIFSTSARYVELYENVENVNVENKTLRQHYSALIPNLFIAAVANISELNAADAEAAAYYLHWDTDLATNDEDEAYYKAKLDFAIETYAKILFNGEVWQEPLAYVQNLDAGARQEAADREAARAADEAYRAEQLRIAQEAADAQKAIAEALAKEAEGNNDNSSDNTETGSSDIGSWGPFAAIAAIIAAIAAIFPFLSGIVKF
As to B1, the binding result was “binds”.
